According to US20210015870A1 (PROMAB BIOTECHNOLOGIES, published 2021):
These are yes or no findings as the source states them, for the method shown. Some binding calls cover weakened binding; strength is not graded here.

Sequences of proteins named here, by UniProt entry; tags and fusion partners are left off. A change or cut given only in a name is not applied to a line headed by its entry.
UniProt Q02223: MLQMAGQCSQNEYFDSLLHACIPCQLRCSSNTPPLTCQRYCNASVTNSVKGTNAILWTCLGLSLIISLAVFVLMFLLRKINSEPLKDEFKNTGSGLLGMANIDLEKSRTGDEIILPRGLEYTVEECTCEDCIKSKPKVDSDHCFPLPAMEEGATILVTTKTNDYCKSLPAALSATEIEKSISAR

Molecular target: BCMA (CD269)-human Fc protein expressed in transfected 293 cells (human) (UniProt Q02223)
Assay: immunostaining of 293 cells transfected with BCMA (CD269)-human Fc

B1: mouse monoclonal anti-human BCMA antibody clone 4C8A (antibody, mouse IgG1, V domains shown)
VH: VQLQQSGPELVKPGASVKMSCKASGYTFTSYVMHWVKQKPGQGLEWIGYIIPYNDATKYNEKFKGKATLTSDKSSSTAYMELSSLTSEDSAVYYCARYNYDGYFDVWGAGTTVTVSS
VL: DIVMTQSPATLSVTPGDRVSLSCRASQSISDYLHWYQQKSHESPRLLIKYASQSISGIPSRFSGSGSGSDFTLSINSVEPEDVGVYYCQNGHSFPPTFGGGTKLEIK
notes: also called BCMA mAb 4C8A; BCMA 4C8A antibody
B1 was tested, and the binding was “binds”.
